Data reported in US11959929B2, “Method of quantifying lysergic acid diethylamide (LSD) and 2,3-dihydro-3-hydroxy-2-oxo lysergide (O-H-LSD) in human plasma” (Universitatsspital Basel, priority 2020, dated 2024).

Experiment: Carry-over between injections (double Blank after ULOQ)
Parameters: species or system human
[1] = 1st Double blank after ULOQ, Assay 1
[2] = 1st Double blank after ULOQ, Assay 2
[3] = 1st Double blank after ULOQ, Assay 3
[4] = 2nd Double blank after ULOQ, Assay 1
[5] = 2nd Double blank after ULOQ, Assay 2
[6] = 2nd Double blank after ULOQ, Assay 3

Row | Compound | Carry-over % LLOQ [1] [%] | Carry-over % ULOQ [1] [%] | Carry-over % LLOQ [2] [%] | Carry-over % ULOQ [2] [%] | Carry-over % LLOQ [3] [%] | Carry-over % ULOQ [3] [%] | Carry-over % LLOQ [4] [%] | Carry-over % ULOQ [4] [%] | Carry-over % LLOQ [5] [%] | Carry-over % ULOQ [5] [%] | Carry-over % LLOQ [6] [%] | Carry-over % ULOQ [6] [%]
1 | CCN(CC)C(=O)[C@@H]1C=C2c3cccc4[nH]cc(c34)C[C@H]2N(C)C1 [LSD, Lysergic acid diethylamide] | 97.1 | 0.114 | 87.6 | 0.097 | 61.6 | 0.079 | 18.6 | 0.022 | 19.0 | 0.021 | 21.1 | 0.027
2 | CCN(CC)C(=O)C1C=C2c3cccc4c3C(O)(C[C@H]2N(C)C1)C(=O)N4 (stereo partly drawn) [O-H-LSD, 2,3-dihydro-3-hydroxy-2-oxo lysergide] | 40.1 | 0.045 | 57.2 | 0.064 | 43.1 | 0.060 | 3.46 | 0.004 | 2.09 | 0.002 | 38.5 | 0.054
